# Source: PubChem BioAssay AID686937 (Drosophila RNAi Screening Center, 2013)
# Assay: 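Genes in the fly needed for secretion of protein constitutively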 (primary screen)
# System: Drosophila S2 cells expressing secreted horseradish peroxidase
# Knock-down reagent: long dsRNA against Drosophila genes
# Duration: about 5.5 days (5 days dsRNA, then 12 h reporter induction)
# Challenge: reporter expression induced after 5 days of dsRNA, read 12 h later; inducer not stated
# Measured: 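Chemiluminescent measurement of peroxidase in the medium 12 h after reporter induction, following 5 days of dsRNA, given as a z-score per plate; higher means more secretion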
# Scale: z-score: higher = more reporter secreted into medium
# The screen tested about 23,000 reagents; this is a random part of those with a known target gene and a result. 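Reduced-secretion tags in replicate 1 do not always agree with the z-scores; no criterion for assigning the tags was given.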 Reagents against one gene are numbered here. Names joined by + are all predicted targets of the reagent. Reagent sequences are not shown. The record does not give: the amount of reagent.
The opening 13 records as a preview:
gene,reagent no.,"z-score, replicate 1","z-score, replicate 2","z-score, replicate 3","z-score, replicate 4","phenotype, replicate 1"
CG3713,1,-0.01,0.22,,,
zda,1,-4.78,-5.23,,,reduced secretion
Art4,1,0.21,0.48,,,
beat-VII,1,0.54,0.39,,,
beat-VII,2,0.39,0.36,,,
beat-VII,3,0.35,0.2,,,
beat-VII,4,-0.3,0.25,,,
wa-cup,1,0.38,-0.16,,,
CG8620,1,0.53,0.47,,,
SMC3,1,0.21,0.02,,,
CG32986,1,0.27,0.32,,,
Sfxn1-3,1,0.17,0.11,,,
Nlg4,1,0.55,0.65,,,

The listing, from the start:
gene,reagent no.,"z-score, replicate 1","z-score, replicate 2","z-score, replicate 3","z-score, replicate 4","phenotype, replicate 1"
CG3713,1,-0.01,0.22,,,
zda,1,-4.78,-5.23,,,reduced secretion
Art4,1,0.21,0.48,,,
beat-VII,1,0.54,0.39,,,
beat-VII,2,0.39,0.36,,,
beat-VII,3,0.35,0.2,,,
beat-VII,4,-0.3,0.25,,,
wa-cup,1,0.38,-0.16,,,
CG8620,1,0.53,0.47,,,
SMC3,1,0.21,0.02,,,
CG32986,1,0.27,0.32,,,
Sfxn1-3,1,0.17,0.11,,,
Nlg4,1,0.55,0.65,,,
Nlg4,2,0.25,0.12,,,
Nlg4,3,0.27,0.25,,,
Nlg4,4,-0.43,-0.62,,,
Nlg4,5,-1.14,-0.23,,,
RpL34b,1,-1.62,-0.46,,,reduced secretion
Cpsf73,1,-1.66,-2.47,,,reduced secretion
ci,1,0.31,0.31,,,
CG14312,1,0.39,0.33,,,
Upf1,1,-0.01,-0.07,,,
CG14507,1,0.07,0.27,,,
Rab3-GAP,1,0.29,0.34,,,
CG1492,1,-0.37,-0.29,,,
CG8757,1,0.22,0.35,,,
CG9896,1,0.27,0.09,,,
CG9896,2,0.21,0.13,,,
DJ-1alpha,1,0.22,0.24,,,
CG14005,1,0.31,0.18,,,
mRpL3,1,0.25,0.02,,,
CG42240,1,-0.87,-0.06,0.12,-1.08,reduced secretion
run,1,0.07,-0.49,,,
run,2,0.45,-0.56,,,
Mocs2A + Mocs2B,1,0.66,0.26,,,
Mocs2A + Mocs2B,2,0.06,0.06,,,
skl,1,-0.05,0.19,,,
Hs3st-A,1,0.19,0.21,,,
Hs3st-A,2,0.42,0.38,,,
Hs3st-A,3,0.34,0.09,,,
bif,1,-0.35,-0.9,,,
bif,2,0.21,0.41,,,
btl,1,0.2,0.29,,,
hec,1,0.39,0.4,,,
Pur-alpha,1,0.38,0.23,,,
CG31898,1,0.65,0.51,,,
ich,1,-0.24,0.13,,,
ich,2,0.23,0.46,,,
Polr2J,1,-0.3,-0.85,,,
CG9467,1,0.1,0.25,,,
p47,1,-0.73,-0.71,,,
Atg9,1,0.13,0.34,,,
CG5966,1,0.33,0.36,,,
CG14759,1,0.38,0.35,,,
CG13202,1,0.38,0.31,,,
CG14229,1,-2.72,-1.82,,,reduced secretion
uex,1,0.09,0,,,
uex,2,-0.21,0.07,,,
CG13970,1,-0.09,-0.26,,,
Ctps,1,-1.82,-1.2,,,reduced secretion
Ctps,2,0.07,0.26,,,
Ctps,3,-1.73,-0.64,,,
Sur-8,1,0.47,0.09,,,
tin,1,0.53,0.54,,,
tin,2,-2.15,-1.8,,,reduced secretion
Ms,1,-0.34,0.02,,,
CG33217,1,1.14,0.22,,,
CG15695,1,-0.05,-0.38,,,
CG5897,1,0.28,0.53,,,
nes,1,0.43,0.28,,,
Ndf,1,0.37,0.35,,,
CG15912,1,0.29,0.57,,,
Enoph,1,0.49,0.56,,,
Papss,1,0.39,0.09,,,
DptB,1,0.36,0.54,,,
CG43181,1,0.21,0.05,,,
CR17438,1,0.37,0.56,,,
CG5281,1,0.27,0.57,,,
Osi23,1,0.2,0.56,,,
mRpS6,1,0.26,0.33,,,
Best2,1,0.06,0.33,,,
rhi,1,-0.2,0.26,,,
CG2736,1,0.28,0.26,,,
CG1701,1,0.37,0.31,,,
CG4887,1,-0.03,0.25,,,
CG4887,2,-0.72,-0.19,,,reduced secretion
CG5151,1,-0.71,-0.48,,,
smash,1,0.04,0.05,,,
smash,2,0.31,0.4,,,
smash,3,0.01,-0.15,,,
smash,4,0.27,0.46,,,
CG32987,1,0.18,0.64,,,
CG17650,1,0.31,0.57,,,
CG16852,1,-0.2,-0.18,,,
CG14551,1,0.13,0.16,,,
CG15317,1,0.35,0.59,,,
CG14767,1,0.2,0.27,,,
CG32982,1,-4.23,-2.66,,,reduced secretion
CG32982,2,0.58,0.63,,,
CG32982,3,0.29,0.59,0.19,0.2,
CG32982,4,0.54,0.36,,,
CG32982,5,0.25,-0.03,,,
CG31612,1,0.11,0.13,-0.16,0.28,
CG31612,2,-0.1,0.33,,,
